# In the supplement of paper PMC8728848:
# The list shows a part of the results.
# B1: YghJ (Escherichia coli), E3PJ90 (protein)
# chain: MNKKFKYKKSLLAAILSATLLAGCDGGGSGSSSDTPPVDSGTGSLPEVKPDPTPNPEPTPEPTPDPEPTPEPIPDPEPTPEPEPEPVPTKTGYLTLGGSQRVTGATCNGESSDGFTFKPGEDVTCVAGNTTIATFNTQSEAARSLRAVEKVSFSLEDAQELAGSDDKKSNAVSLVTSSNSCPANTEQVCLTFSSVIESKRFDSLYKQIDLAPEEFKKLVNEEVENNAATDKAPSTHTSPVVPVTTPGTKPDLNASFVSANAEQFYQYQPTEIILSEGRLVDSQGYGVAGVNYYTNSGRGVTGENGEFSFSWGEAISFGIDTFELGSVRGNKSTIALTELGDEVRGANIDQLIHRYSTTGQNNTRVVPDDVRKVFAEYPNVINEIINLSLSNGATLGEGEQVVNLPNEFIEQFNTGQAKEIDTAICAKTDGCNEARWFSLTTRNVNDGQIQGVINKLWGVDTNYKSVSKFHVFHDSTNFYGSTGNARGQAVVNISNAAFPILMARNDKNYWLAFGEKRAWDKNELAYITEAPSIVRPENVTRETASFNLPFISLGQVGDGKLMVIGNPHYNSILRCPNGYSWNGGVNKDGQCTLNSDPDDMKNFMENVLRYLSNDRWLPDAKSSMTVGTNLETVYFKKHGQVLGNSAPFAFHKDFTGITVKPMTSYGNLNPDEVPLLILNGFEYVTQWGSDPYSIPLRADTSKPKLTQQDVTDLIAYMNKGGSVLIMENVMSNLKEESASGFVRLLDAAGLSMALNKSVVNNDPQGYPDRVRQRRSTPIWVYERYPAVDGKPPYTIDDTTKEVIWKYQQENKPDDKPKLEVASWQEEVEGKQVTQFAFIDEADHKTPESLAAAKQRILDAFPGLEVCKDSDYHYEVNCLEYRPGTDVPVTGGMYVPQYTQLDLSADTAKAMLQAADLGTNIQRLYQHELYFRTNGRQGERLNSVDLERLYQNMSVWLWNETKYRYEEGKEDELGFKTFTEFLNCYTNNAYVGTQCSAELKKSLIDNKMIYGEESSKAGMMNPSYPLNYMEKPLTRLMLGRSWWDLNIKVDVEKYPGVVNTNGETVTQNINLYSAPTKWFAGNMQSTGLWAPAQQEVSIESKSTVPVTVTVALADDLTGREKHEVSLNRPPRVTKTYDLKANDKVTFKVPYGGLIYIKGDSKEVQSADFTFTGVVKAPFYKDGKWQHDLNSPAPLGELESASFVYTTPKKNLNASNYTGGLEQFANDLDTFASSMNDFYGRDSEDGKHRMFTYKNLPGHKHRFANDVQISIGDAHSGYPVMNSSFSPNSTTLPTTPLNDWLIWHEVGHNAAETPLTVPGATEVANNVLALYMQDRYLGKMNRVADDITVAPEYLEESNGQAWARGGAGDRLLMYAQLKEWAEKNFDIKKWYPDGTPLPEFYSEREGMKGWNLFQLMHRKARGDEVSNDKFGGKNYCAESNGNAADTLMLCASWVAQTDLSEFFKKWNPGANAYQLPGASEMSFEGGVSQSAYNTLASLDLPKPEQGPETINQVTEHKMSAE
# Experiments:
# Assay in all cases: glycan array binding signal (z-score within array); higher = stronger binding
# Conditions in all cases: glycan notation: IUPAC condensed, linker removed
# [1] = target: Gal(b1-3)GlcNAc(b1-2)Man(a1-3)[Gal(b1-3)GlcNAc(b1-2)Man(a1-6)]Man(b1-4)GlcNAc(b1-4)[Fuc(a1-6)]GlcNAc
# In short: (§1)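 Glycan array data came from 3228 arrays in the Consortium for Functional Glycomics database, and only arrays with an available protein sequence were kept. Glycan names were put into IUPAC-condensed notation, and columns mapping to the same glycan were averaged. The binding signal is a within-array Z-score, averaged across arrays of one protein sequence run at different concentrations or buffers and across linkers. A negative Z-score can be read as non-binding.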
# [2] = target: Gal(b1-3)GlcNAc(b1-2)Man(a1-3)[GlcNAc(b1-4)][Gal(b1-3)GlcNAc(b1-2)Man(a1-6)]Man(b1-4)GlcNAc(b1-4)GlcNAc
# In short: as §1
# [3] = target: Gal(b1-3)GlcNAc(b1-2)[Gal(b1-3)GlcNAc(b1-6)]Man(a1-6)[Gal(b1-3)GlcNAc(b1-2)Man(a1-3)]Man(b1-4)GlcNAc(b1-4)GlcNAc
# In short: as §1
# [4] = target: Gal(b1-3)GlcNAc(b1-3)Gal(b1-3)GlcNAc
# In short: as §1
# [5] = target: Gal(b1-3)GlcNAc(b1-3)Gal(b1-4)Glc
# In short: as §1
# [6] = target: Gal(b1-3)GlcNAc(b1-3)Gal(b1-4)GlcNAc
# In short: as §1
# [7] = target: Gal(b1-3)GlcNAc(b1-3)Gal(b1-4)GlcNAc(b1-2)Man(a1-3)[Gal(b1-3)GlcNAc(b1-3)Gal(b1-4)GlcNAc(b1-2)Man(a1-6)]Man(b1-4)GlcNAc(b1-4)GlcNAc
# In short: as §1
# [8] = target: Gal(b1-3)GlcNAc(b1-3)Gal(b1-4)GlcNAc(b1-2)[Gal(b1-3)GlcNAc(b1-3)Gal(b1-4)GlcNAc(b1-6)]Man(a1-6)[Gal(b1-3)GlcNAc(b1-3)Gal(b1-4)GlcNAc(b1-2)Man(a1-3)]Man(b1-4)GlcNAc(b1-4)[Fuc(a1-6)]GlcNAc
# In short: as §1
# [9] = target: Gal(b1-3)GlcNAc(b1-3)Gal(b1-4)GlcNAc(b1-3)Gal(b1-4)GlcNAc(b1-2)[Gal(b1-3)GlcNAc(b1-3)Gal(b1-4)GlcNAc(b1-3)Gal(b1-4)GlcNAc(b1-6)]Man(a1-6)[Gal(b1-3)GlcNAc(b1-3)Gal(b1-4)GlcNAc(b1-3)Gal(b1-4)GlcNAc(b1-2)Man(a1-3)]Man(b1-4)GlcNAc(b1-4)[Fuc(a1-6)]GlcNAc
# In short: as §1
# [10] = target: Gal(b1-3)GlcNAc(b1-3)Gal(b1-4)GlcNAc(b1-6)[Gal(b1-3)GlcNAc(b1-3)]Gal(b1-4)Glc
# In short: as §1
# [11] = target: Gal(b1-3)GlcNAc(b1-3)Gal(b1-4)[Fuc(a1-3)]GlcNAc
# In short: as §1
# [12] = target: Gal(b1-3)GlcNAc(b1-3)Gal(b1-4)[Fuc(a1-3)]GlcNAc(b1-6)[Gal(b1-3)GlcNAc(b1-3)]Gal(b1-4)Glc
# In short: as §1
# [13] = target: Gal(b1-3)GlcNAc(b1-3)GalNAc
# In short: as §1
# [14] = target: Gal(b1-3)GlcNAc(b1-6)Gal(b1-4)GlcNAc
# In short: as §1
# [15] = target: Gal(b1-3)GlcNAc(b1-6)GalNAc
# In short: as §1
# [16] = target: Gal(b1-3)GlcNAc(b1-6)[Gal(b1-3)]GalNAc
# In short: as §1
# [17] = target: Gal(b1-3)GlcNAc6S
# In short: as §1
# [18] = target: Gal(b1-3)[Fuc(a1-4)]GlcNAc
# In short: as §1
# [19] = target: Gal(b1-3)[Fuc(a1-4)]GlcNAc(b1-2)Man
# In short: as §1
# [20] = target: Gal(b1-3)[Fuc(a1-4)]GlcNAc(b1-2)Man(a1-3)[Gal(b1-3)[Fuc(a1-4)]GlcNAc(b1-2)Man(a1-6)]Man(b1-4)GlcNAc(b1-4)[Fuc(a1-6)]GlcNAc
# In short: as §1
# [21] = target: Gal(b1-3)[Fuc(a1-4)]GlcNAc(b1-3)Gal(b1-3)[Fuc(a1-4)]GlcNAc
# In short: as §1
# [22] = target: Gal(b1-3)[Fuc(a1-4)]GlcNAc(b1-3)Gal(b1-4)[Fuc(a1-3)]GlcNAc
# In short: as §1
# [23] = target: Gal(b1-3)[Fuc(a1-4)]GlcNAc(b1-6)GalNAc
# In short: as §1
# [24] = target: Gal(b1-3)[GlcNAc(b1-6)]GalNAc
# In short: as §1
# [25] = target: Gal(b1-3)[Neu5Ac(a2-6)]GalNAc
# In short: as §1
# [26] = target: Gal(b1-3)[Neu5Ac(a2-6)]GlcNAc(b1-4)Gal(b1-4)Glc
# In short: as §1
# [27] = target: Gal(b1-3)[Neu5Ac(b2-6)]GalNAc
# In short: as §1
# [28] = target: Gal(b1-4)Gal
# In short: as §1
# [29] = target: Gal(b1-4)GalNAc(a1-3)[Fuc(a1-2)]Gal(b1-4)GlcNAc
# In short: as §1
# [30] = target: Gal(b1-4)GalNAc(b1-3)[Fuc(a1-2)]Gal(b1-4)GlcNAc
# In short: as §1
binder,measurement,setting,value
B1,glycan array binding signal (z-score),[1],-0.233
same,glycan array binding signal (z-score),[2],1.32
same,glycan array binding signal (z-score),[3],0.998
same,glycan array binding signal (z-score),[4],-0.516
same,glycan array binding signal (z-score),[5],-0.585
same,glycan array binding signal (z-score),[6],-0.743
same,glycan array binding signal (z-score),[7],0.683
same,glycan array binding signal (z-score),[8],-0.296
same,glycan array binding signal (z-score),[9],0.402
same,glycan array binding signal (z-score),[10],1.23
same,glycan array binding signal (z-score),[11],2.4
same,glycan array binding signal (z-score),[12],-1.76
same,glycan array binding signal (z-score),[13],-0.313
same,glycan array binding signal (z-score),[14],-1.15
same,glycan array binding signal (z-score),[15],-1.75
same,glycan array binding signal (z-score),[16],0.75
same,glycan array binding signal (z-score),[17],0.928
same,glycan array binding signal (z-score),[18],0.039
same,glycan array binding signal (z-score),[19],0.715
same,glycan array binding signal (z-score),[20],0.471
same,glycan array binding signal (z-score),[21],-1.57
same,glycan array binding signal (z-score),[22],0.826
same,glycan array binding signal (z-score),[23],-0.237
same,glycan array binding signal (z-score),[24],-0.212
same,glycan array binding signal (z-score),[25],-0.102
same,glycan array binding signal (z-score),[26],-0.273
same,glycan array binding signal (z-score),[27],0.35
same,glycan array binding signal (z-score),[28],0.832
same,glycan array binding signal (z-score),[29],-1.43
same,glycan array binding signal (z-score),[30],-0.638

# Shown tab-delimited: entries from further up
binder	measurement	setting	value
B1	glycan array binding signal (z-score)	[18]	0.039
same	glycan array binding signal (z-score)	[19]	0.715
same	glycan array binding signal (z-score)	[20]	0.471
same	glycan array binding signal (z-score)	[21]	-1.57
same	glycan array binding signal (z-score)	[22]	0.826
same	glycan array binding signal (z-score)	[23]	-0.237
same	glycan array binding signal (z-score)	[24]	-0.212
